This note sets out measurements from publication PMC4503440.

The assay concerns the target T1, HA-tagged wild-type αPIX (human) (UniProt Q15052).
T1 sequence: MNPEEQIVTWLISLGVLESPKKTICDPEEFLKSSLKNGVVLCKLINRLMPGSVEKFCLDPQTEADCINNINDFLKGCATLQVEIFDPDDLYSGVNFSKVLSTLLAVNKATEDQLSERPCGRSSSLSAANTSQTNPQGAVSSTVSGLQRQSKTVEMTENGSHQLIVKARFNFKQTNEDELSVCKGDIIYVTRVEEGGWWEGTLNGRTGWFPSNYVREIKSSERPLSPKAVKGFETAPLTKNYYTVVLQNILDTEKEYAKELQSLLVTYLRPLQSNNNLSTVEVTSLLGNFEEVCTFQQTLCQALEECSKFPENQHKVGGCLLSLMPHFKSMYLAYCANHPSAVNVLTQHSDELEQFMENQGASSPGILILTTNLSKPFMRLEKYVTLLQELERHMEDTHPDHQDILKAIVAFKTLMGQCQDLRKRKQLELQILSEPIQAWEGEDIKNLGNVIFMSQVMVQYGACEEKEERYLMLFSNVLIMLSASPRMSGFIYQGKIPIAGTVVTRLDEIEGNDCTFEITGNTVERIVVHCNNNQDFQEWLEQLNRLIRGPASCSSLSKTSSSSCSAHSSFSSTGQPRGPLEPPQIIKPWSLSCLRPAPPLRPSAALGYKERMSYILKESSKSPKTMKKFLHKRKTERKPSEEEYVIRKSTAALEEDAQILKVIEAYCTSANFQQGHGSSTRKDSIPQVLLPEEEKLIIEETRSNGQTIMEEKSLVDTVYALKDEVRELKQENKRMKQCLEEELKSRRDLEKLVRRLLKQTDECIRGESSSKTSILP
Nature of the assay: co-IP; transfected COS-7 cells; lysis in 150 mM Tris-HCl pH 8.0, 50 mM NaCl, 1 mM EDTA, 0.5% Nonidet P40; HA-αPIX precipitated on anti-HA agarose 2 h at 4°C; blot with anti-Cbl or anti-FLAG; in Fig 2A cells in 10% FBS or serum-starved and stimulated with 5 ng/ml EGF for 5-60 min.

These are yes or no findings as the source states them, for the method shown. Binding seen in cells or lysates may run through a third protein. Some binding calls cover weakened binding; strength is not graded here. Where a sequence is shown, tags or fusion partners need not be part of it.

B1: Flag-tagged wild-type rat Git1 (protein, UniProt Q9Z272 1-770)
chain: MSRKGPRAEVCADCSAPDPGWASISRGVLVCDECCSVHRSLGRHISIVKHLRHSAWPPTLLQMVHTLASNGANSIWEHSLLDPAQVQSGRRKANPQDKVHPIKSEFIRAKYQMLAFVHKLPCRDDDGVTAKDLSKQLHSSVRTGNLETCLRLLSLGAQANFFHPEKGTTPLHVAAKAGQTLQAELLVVYGADPGSPDVNGRTPIDYARQAGHHELAERLVECQYELTDRLAFYLCGRKPDHKNGHYIIPQMADRSRQKCMSQSLDLSELAKAAKKKLQALSNRLFEELAMDVYDEVDRRENDAVWLATQNHSTLVTERSAVPFLPVNPEYSATRNQGRQKLARFNAREFATLIIDILSEAKRRQQGKSLSSPTDNLELSARNQSDLDDQHDYDSVASDEDTDQEPLPSAGATRNNRARSMDSSDLSDGAVTLQEYLELKKALATSEAKVQQLMKVNSSLSDELRKLQREIHKLQAENLQLRQPPGPVPVPSLPSERAEHTLMGPGGSTHRRDRQAFSMYEPGSALKPFGGAPGDELATRLQPFHSTELEDDAIYSVHVPAGLYRIRKGVSASSVTFTPSSPLLSSSQEGSRHASKLSRHGSGAESDYENTQSGEPLLGLEGKRFLELSKEDELHAELESLDGDPDPGLPSTEDVILKTEQVTKNIQELLRAAQEFKHDSFVPCSEKIHLAVTEMASLFPKRPALEPVRSSLRLLNASAYRLQSECRKTVPPEPGAPVDFQLLTQQVIQCAYDIAKAAKQLVTITTREKKQ
As to B1, the binding result is on record as “binds”.

B2: Flag-tagged wild-type human GIT2 (protein, UniProt Q14161-1 1-759)
chain: MSKRLRSSEVCADCSGPDPSWASVNRGTFLCDECCSVHRSLGRHISQVRHLKHTPWPPTLLQMVETLYNNGANSIWEHSLLDPASIMSGRRKANPQDKVHPNKAEFIRAKYQMLAFVHRLPCRDDDSVTAKDLSKQLHSSVRTGNLETCLRLLSLGAQANFFHPEKGNTPLHVASKAGQILQAELLAVYGADPGTQDSSGKTPVDYARQGGHHELAERLVEIQYELTDRLAFYLCGRKPDHKNGQHFIIPQMADSSLDLSELAKAAKKKLQSLSNHLFEELAMDVYDEVDRRETDAVWLATQNHSALVTETTVVPFLPVNPEYSSTRNQGRQKLARFNAHEFATLVIDILSDAKRRQQGSSLSGSKDNVELILKTINNQHSVESQDNDQPDYDSVASDEDTDLETTASKTNRQKSLDSDLSDGPVTVQEFMEVKNALVASEAKIQQLMKVNNNLSDELRIMQKKLQTLQSENSNLRKQATTNVYQVQTGSEYTDTSNHSSLKRRPSARGSRPMSMYETGSGQKPYLPMGEASRPEESRMRLQPFPAHIGRSALVTSSSSLPSFPSTLSWSRDESARRASRLEKQNSTPESDYDNTPNDMEPDGMGSSRKGRQRSMVWPGDGLVPDTAEPHVAPSPTLPSTEDVIRKTEQITKNIQELLRAAQENKHDSYIPCSERIHVAVTEMAALFPKKPKSDMVRTSLRLLTSSAYRLQSECKKTLPGDPGSPTDVQLVTQQVIQCAYDIAKAAKQLVTITTKENNN
With B2, the binding entry is “binds”.
